No constants are given. Whether binding was seen depends on the method and setting. Some results given as binding are weak or reduced against the parent protein; the word gives no strength.
T1: FZD8 (UniProt Q9H461)
T1 sequence (looked up): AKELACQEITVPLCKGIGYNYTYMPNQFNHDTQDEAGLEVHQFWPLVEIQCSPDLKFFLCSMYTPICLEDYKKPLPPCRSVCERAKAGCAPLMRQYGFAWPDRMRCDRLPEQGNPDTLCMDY

T2: Frizzled 8 (Fzd8) (UniProt Q9H461)
T2 sequence (looked up): T1 sequence (looked up)

T3: Frizzled 5 (Fzd5) (UniProt Q13467)
T3 sequence (looked up): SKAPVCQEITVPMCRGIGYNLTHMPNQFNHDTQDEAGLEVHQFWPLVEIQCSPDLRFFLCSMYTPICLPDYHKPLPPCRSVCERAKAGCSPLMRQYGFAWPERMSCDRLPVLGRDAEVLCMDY

B1: F3: antiFZD5, 8 (2919) scFv (scFv)
scFv: EVQLVESGGGLVQPGGSLRLSCAASGFNISYSYIHWVRQAPGKGLEWVASIYSSSGSTSYADSVKGRFTISADTSKNTAYLQMNSLRAEDTAVYYCARGAIDYWGQGTLVTVSSGGGGSGGGGSGGGGSDIQMTQSPSSLSASVGDRVTITCRASQSVSSAVAWYQQKPGKAPKLLIYSASSLYSGVPSRFSGSRSGTDFTLTISSLQPEDFATYYCQQWYSSGHVLITFGQGTKVEIK
B2: F3 (2919) (scFv)
scFv: B1 scFv

Tests used:
FZD8 = target: T1, FZD8; assay: column 'Specificity (Clone name)' of the component table; method not given there
Frizzled 8 (Fzd8) = target: T2, Frizzled 8 (Fzd8); assay: BLI (Octet), FIG. 15A
Frizzled 5 (Fzd5) = target: T3, Frizzled 5 (Fzd5); assay: BLI (Octet), FIG. 15A

Row | Binder | binding (FZD8) | binding (Frizzled 8 (Fzd8)) | binding (Frizzled 5 (Fzd5))
1 | B1 | binds | – | –
2 | B2 | – | binds | binds

— patent publication US20210292422A1
